Compound in the assay: Nc1ncnc2c1ncn2[C@@H]1O[C@H](COP(=O)(O)OP(=O)(O)NP(=O)(O)O)[C@@H](O)[C@H]1O [adenylyl imidodiphosphate]
Briefly: NP40-soluble protein abundance relative to vehicle (solubility fold change) (ratio); higher = more soluble protein in presence of AMP-PNP. The essentials:
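Jurkat crude lysate prepared with a Dounce homogeniser was treated at eight concentrations spanning 0.1 to 10 mM, 10 min at room temperature then 3 min at 37 °C. Solubilisation with 0.8% NP40 and benzonase and ultracentrifugation preceded TMT labelling of the supernatant for LC-MS/MS. Fold change against the detergent-processed vehicle was determined per replicate from vsn-normalised intensities, across three independent experiments.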

± gives the standard deviation of the averaged measurements. Only a part is listed here, and it is no random draw. Most values lie at the level of the controls, where differences are scatter.

Regarding A0A0A0MSS8|P42330 (UniProt P42330), the NP40-soluble protein abundance is 1.04 ± 0.052 (concentration: 0.1mM) and 1.03 ± 0.02 (concentration: 0.5mM).

Turning to A0A087WZ13|E9PAU2 (UniProt Q8IY67), the NP40-soluble protein abundance was 1.07 ± 0.078 (concentration: 0.1mM) and 0.989 ± 0.024 (concentration: 0.5mM).

A0A0B4J2A0|Q9UHJ6 (UniProt Q9UHJ6): the NP40-soluble protein abundance (concentration: 0.1mM) came to 1.02 ± 0.029 and the NP40-soluble protein abundance (concentration: 0.5mM) amounted to 1.003 ± 0.008.

Take A0A0A0MQR2|Q9BY42 (UniProt Q9BY42): the NP40-soluble protein abundance reads like this: (concentration: 0.1mM) 0.982 ± 0.019; (concentration: 0.5mM) 1.009 ± 0.0094.

Take A0A087WWS1|Q96FV9 (UniProt Q96FV9): the NP40-soluble protein abundance reads like this: (concentration: 0.1mM) 1.19 ± 0.051; (concentration: 0.5mM) 1.25 ± 0.084.

For the target A0A0G2JH68 (UniProt O60610), the NP40-soluble protein abundance is, setting by setting: (concentration: 0.1mM) 0.997 ± 0.0092; (concentration: 0.5mM) 1.01 ± 0.018.

Regarding A0A0A0MQS1|Q53H96 (UniProt Q53H96), the NP40-soluble protein abundance (concentration: 0.1mM) worked out at 0.999 ± 0.031 and the NP40-soluble protein abundance (concentration: 0.5mM) came out at 0.995 ± 0.019.

“A0A0A6YYG7|Q6IBW4 and related entries (UniProt Q6IBW4)”: the NP40-soluble protein abundance (concentration: 0.1mM) stood at 0.975 ± 0.043 and the NP40-soluble protein abundance (concentration: 0.5mM) was 1.01 ± 0.083.

On to A0A0B4J1R7|Q96B45 (UniProt Q96B45), for which the NP40-soluble protein abundance is, setting by setting: (concentration: 0.1mM) 1.013 ± 0.01; (concentration: 0.5mM) 0.999 ± 0.021.

Take A0A0G2JHC2|Q6NYC8 (UniProt Q6NYC8): the NP40-soluble protein abundance was determined as 1.01 ± 0.024 (concentration: 0.1mM) and 1.04 ± 0.039 (concentration: 0.5mM).

For the target A0A0A0MTH9|O14981 (UniProt O14981), the NP40-soluble protein abundance worked out at 1.03 ± 0.016 (concentration: 0.1mM) and 1 ± 0.021 (concentration: 0.5mM).

For the target “A0A0A0MTG1|A0A0G2JIA5|A0A140T8Y0|A0A140TA35|A0A140TA36|A0A140TA40|A0A140TA45|Q5ST30 and related entries (UniProt Q5ST30)”, the NP40-soluble protein abundance reads like this: (concentration: 0.1mM) 1 ± 0.021; (concentration: 0.5mM) 0.9976 ± 0.0096.

On to “A0A0D9SGJ6|J3KQV8 and related entries (UniProt O43426)”, for which the NP40-soluble protein abundance reads like this: (concentration: 0.1mM) 0.989 ± 0.041; (concentration: 0.5mM) 0.965 ± 0.08.

With A0A0D9SG71|P49459 (UniProt P49459), the NP40-soluble protein abundance stood at 1.02 ± 0.029 (concentration: 0.1mM) and 1.02 ± 0.039 (concentration: 0.5mM).

“A0A087WYL5|Q6UXD5-3|Q6UXD5-5|Q6UXD5-6|Q6UXD5 and related entries (UniProt Q6UXD5)”: the NP40-soluble protein abundance is, setting by setting: (concentration: 0.1mM) 0.977 ± 0.013; (concentration: 0.5mM) 0.991 ± 0.014.

With “A0A0C4DGA2|O75521 and related entries (UniProt O75521)”, the NP40-soluble protein abundance amounted to 0.99 ± 0.032 (concentration: 0.1mM) and 1.02 ± 0.035 (concentration: 0.5mM).

Take A0A0C4DFX9|Q9H3P2 (UniProt Q9H3P2): the NP40-soluble protein abundance runs as follows: (concentration: 0.1mM) 0.9755 ± 0.0053; (concentration: 0.5mM) 1.01 ± 0.033.

Consider “A0A0U1RR27|Q7Z401 and related entries (UniProt Q7Z401)”, for which the NP40-soluble protein abundance is, setting by setting: (concentration: 0.1mM) 1.131 ± 0.011; (concentration: 0.5mM) 1.01 ± 0.034.

With A0A0A0MTB8|Q8NI36 (UniProt Q8NI36), the NP40-soluble protein abundance amounted to 1.01 ± 0.039 (concentration: 0.1mM) and 1.05 ± 0.046 (concentration: 0.5mM).

“A0A0C4DFU2|P04179 and related entries (UniProt P04179)”: the NP40-soluble protein abundance reads like this: (concentration: 0.1mM) 0.976 ± 0.051; (concentration: 0.5mM) 1.01 ± 0.067.

With “A0A087X0R0|F5H6S1 and related entries (UniProt O15550)”, the NP40-soluble protein abundance reads like this: (concentration: 0.1mM) 0.985 ± 0.0055; (concentration: 0.5mM) 0.9711 ± 0.0061.

“A2A2V1 and related entries (UniProt P04156+A2A2V1)”: the NP40-soluble protein abundance was determined as 1.05 ± 0.069 (concentration: 0.1mM) and 1 ± 0.042 (concentration: 0.5mM).

On to A0A087WY82|Q9Y624 (UniProt Q9Y624), for which the NP40-soluble protein abundance by setting is: (concentration: 0.1mM) 0.998 ± 0.012; (concentration: 0.5mM) 0.981 ± 0.017.

Regarding “A0A0J9YXJ0|E9PC62 and related entries (UniProt O95319)”, the NP40-soluble protein abundance amounted to 0.9855 ± 0.0071 (concentration: 0.1mM) and 1 ± 0.018 (concentration: 0.5mM).

With “A0A0C4DG21|E7EP65 and related entries (UniProt Q9NYB9)”, the NP40-soluble protein abundance reads like this: (concentration: 0.1mM) 0.974 ± 0.024; (concentration: 0.5mM) 0.994 ± 0.042.

Take “A0A0A0MSB8|Q9UPT5 and related entries (UniProt Q9UPT5)”: the NP40-soluble protein abundance runs as follows: (concentration: 0.1mM) 0.994 ± 0.014; (concentration: 0.5mM) 0.9853 ± 0.0055.

As to A0A0C4DGJ7 (UniProt Q8WUH1), the NP40-soluble protein abundance came out at 1.03 ± 0.022 (concentration: 0.1mM) and 0.973 ± 0.055 (concentration: 0.5mM).

On to UHRF1BP1L (UniProt A0JNW5), for which the NP40-soluble protein abundance is 0.994 ± 0.015 (concentration: 0.1mM) and 1.03 ± 0.041 (concentration: 0.5mM).

Regarding “A0A087WXK1|D6REL5 and related entries (UniProt Q6UWZ7)”, the NP40-soluble protein abundance amounted to 1.01 ± 0.074 (concentration: 0.1mM) and 0.976 ± 0.016 (concentration: 0.5mM).

Take “A0A0G2JIW1|P0DMV8 and related entries (UniProt P0DMV9+P0DMV8)”: the NP40-soluble protein abundance (concentration: 0.1mM) is 1.02 ± 0.043 and the NP40-soluble protein abundance (concentration: 0.5mM) was 1.04 ± 0.051.

For A0A0C4DGS1|P39656 (UniProt P39656), the NP40-soluble protein abundance (concentration: 0.1mM) was determined as 1.02 ± 0.052 and the NP40-soluble protein abundance (concentration: 0.5mM) was 0.948 ± 0.14.

Take “A0A087WXV6|Q96G74 and related entries (UniProt Q96G74)”: the NP40-soluble protein abundance runs as follows: (concentration: 0.1mM) 0.999 ± 0.013; (concentration: 0.5mM) 1.01 ± 0.054.

For “A0A0A0MR39|Q9P2K5-3|A0A0A0MQW0 (UniProt Q9P2K5)”, the NP40-soluble protein abundance reads like this: (concentration: 0.1mM) 1.02 ± 0.043; (concentration: 0.5mM) 1.02 ± 0.052.

For the target “A0A0A0MRJ0|Q5VT25 and related entries (UniProt Q5VT25)”, the NP40-soluble protein abundance was 0.984 ± 0.038 (concentration: 0.1mM) and 0.9968 ± 0.0096 (concentration: 0.5mM).

Consider A0A087X1Z3|Q9UL46 (UniProt Q9UL46), for which the NP40-soluble protein abundance came to 0.995 ± 0.059 (concentration: 0.1mM) and 1.06 ± 0.11 (concentration: 0.5mM).

Regarding “A0A087WXM6|A0A0A6YYL6|J3KRX5 and related entries (UniProt P18621)”, the NP40-soluble protein abundance (concentration: 0.1mM) stood at 1.04 ± 0.032 and the NP40-soluble protein abundance (concentration: 0.5mM) is 1.004 ± 0.0069.

For “A0A0A0MRR3|Q7Z7C8 and related entries (UniProt Q7Z7C8)”, the NP40-soluble protein abundance by setting is: (concentration: 0.1mM) 0.9982 ± 0.0089; (concentration: 0.5mM) 0.999 ± 0.036.

Consider “A0A0A6YYA7|Q12851 and related entries (UniProt Q12851)”, for which the NP40-soluble protein abundance turned out to be 0.944 ± 0.012 (concentration: 0.1mM) and 0.985 ± 0.03 (concentration: 0.5mM).

As to A0A0C4DFV0|Q9H469 (UniProt Q9H469), the NP40-soluble protein abundance is 0.9786 ± 0.0029 (concentration: 0.1mM) and 0.985 ± 0.017 (concentration: 0.5mM).

As for A0A0A0MRI1|Q8IXQ4 (UniProt Q8IXQ4), the NP40-soluble protein abundance amounted to 0.994 ± 0.022 (concentration: 0.1mM) and 1.06 ± 0.08 (concentration: 0.5mM).

With “A0A0G2JIS2|Q96KQ7 and related entries (UniProt Q96KQ7)”, the NP40-soluble protein abundance by setting is: (concentration: 0.1mM) 1.03 ± 0.018; (concentration: 0.5mM) 0.992 ± 0.025.

(Values after the supplement of paper PMC6411743.)
